In the supplement of paper PMC12819154, “High-throughput peptide-centric local stability assay extends protein–ligand identification to membrane proteins, tissues and bacteria” (Nature Structural & Molecular Biology, 2025) one finds log2 fold change data, which are given here for 36 targets.

Amino acid sequences for entries named in this document (tags omitted). A change or cut given only in a name is not applied to a line headed by its entry.
UniProt Q91YU6: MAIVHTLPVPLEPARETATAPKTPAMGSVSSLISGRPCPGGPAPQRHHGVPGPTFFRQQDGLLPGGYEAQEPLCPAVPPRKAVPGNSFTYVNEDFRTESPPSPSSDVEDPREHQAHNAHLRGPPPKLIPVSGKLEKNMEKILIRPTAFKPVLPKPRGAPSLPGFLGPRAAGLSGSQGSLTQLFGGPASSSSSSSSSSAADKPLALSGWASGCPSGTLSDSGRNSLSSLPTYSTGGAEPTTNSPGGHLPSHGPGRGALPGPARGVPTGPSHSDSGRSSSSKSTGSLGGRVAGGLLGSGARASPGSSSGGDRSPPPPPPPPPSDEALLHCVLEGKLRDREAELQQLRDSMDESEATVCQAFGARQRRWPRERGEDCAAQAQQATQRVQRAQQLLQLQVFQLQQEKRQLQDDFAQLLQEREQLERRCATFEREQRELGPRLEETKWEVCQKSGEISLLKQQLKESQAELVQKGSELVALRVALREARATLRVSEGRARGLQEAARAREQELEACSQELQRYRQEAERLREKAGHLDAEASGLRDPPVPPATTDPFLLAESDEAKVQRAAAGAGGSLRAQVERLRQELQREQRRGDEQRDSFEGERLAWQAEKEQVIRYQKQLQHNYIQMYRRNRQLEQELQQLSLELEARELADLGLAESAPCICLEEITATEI
UniProt Q91X83: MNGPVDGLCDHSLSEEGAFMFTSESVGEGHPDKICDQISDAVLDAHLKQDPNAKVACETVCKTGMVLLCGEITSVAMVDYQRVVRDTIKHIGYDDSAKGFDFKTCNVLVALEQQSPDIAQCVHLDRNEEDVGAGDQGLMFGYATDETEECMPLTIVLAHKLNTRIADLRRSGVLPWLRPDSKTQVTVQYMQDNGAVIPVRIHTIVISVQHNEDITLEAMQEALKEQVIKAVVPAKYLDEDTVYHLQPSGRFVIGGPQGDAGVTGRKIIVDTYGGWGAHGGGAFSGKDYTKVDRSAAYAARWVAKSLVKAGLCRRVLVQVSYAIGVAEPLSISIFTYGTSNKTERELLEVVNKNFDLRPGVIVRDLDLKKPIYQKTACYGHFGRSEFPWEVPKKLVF
UniProt Q91YN1: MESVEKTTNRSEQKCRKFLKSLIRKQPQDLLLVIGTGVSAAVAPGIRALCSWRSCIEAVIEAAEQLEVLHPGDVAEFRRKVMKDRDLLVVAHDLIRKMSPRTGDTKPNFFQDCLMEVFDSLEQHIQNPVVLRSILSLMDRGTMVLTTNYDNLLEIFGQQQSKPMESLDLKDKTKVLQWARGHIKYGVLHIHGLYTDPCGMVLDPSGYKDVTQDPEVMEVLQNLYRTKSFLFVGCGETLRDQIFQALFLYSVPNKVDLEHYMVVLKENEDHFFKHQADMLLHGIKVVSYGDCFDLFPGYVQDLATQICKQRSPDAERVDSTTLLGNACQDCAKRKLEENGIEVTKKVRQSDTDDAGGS
UniProt Q91XD7: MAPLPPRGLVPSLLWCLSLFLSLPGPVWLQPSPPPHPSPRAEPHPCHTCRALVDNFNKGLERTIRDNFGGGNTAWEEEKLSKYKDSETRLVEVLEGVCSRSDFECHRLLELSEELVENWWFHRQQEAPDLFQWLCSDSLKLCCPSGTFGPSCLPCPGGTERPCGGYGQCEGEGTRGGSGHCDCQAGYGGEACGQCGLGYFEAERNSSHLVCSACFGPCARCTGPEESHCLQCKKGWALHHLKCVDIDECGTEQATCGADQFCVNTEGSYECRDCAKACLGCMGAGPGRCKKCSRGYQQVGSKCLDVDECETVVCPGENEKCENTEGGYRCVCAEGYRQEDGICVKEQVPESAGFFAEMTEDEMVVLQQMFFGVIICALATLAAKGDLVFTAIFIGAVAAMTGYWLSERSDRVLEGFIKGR
UniProt Q91X52: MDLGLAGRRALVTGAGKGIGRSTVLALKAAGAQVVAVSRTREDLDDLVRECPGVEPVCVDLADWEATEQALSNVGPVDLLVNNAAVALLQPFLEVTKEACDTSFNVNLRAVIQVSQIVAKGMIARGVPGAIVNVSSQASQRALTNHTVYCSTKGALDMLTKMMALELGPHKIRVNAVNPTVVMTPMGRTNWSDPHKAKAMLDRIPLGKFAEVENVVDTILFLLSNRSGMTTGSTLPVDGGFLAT
UniProt Q91WK7: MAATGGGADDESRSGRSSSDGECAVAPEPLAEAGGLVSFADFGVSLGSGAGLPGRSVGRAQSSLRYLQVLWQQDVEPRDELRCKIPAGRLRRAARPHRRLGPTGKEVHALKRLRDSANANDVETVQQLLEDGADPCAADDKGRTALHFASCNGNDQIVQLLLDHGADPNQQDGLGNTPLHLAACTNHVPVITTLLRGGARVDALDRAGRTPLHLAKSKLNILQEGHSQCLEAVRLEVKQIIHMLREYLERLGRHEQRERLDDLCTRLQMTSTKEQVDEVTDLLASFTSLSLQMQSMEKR
UniProt Q91W82: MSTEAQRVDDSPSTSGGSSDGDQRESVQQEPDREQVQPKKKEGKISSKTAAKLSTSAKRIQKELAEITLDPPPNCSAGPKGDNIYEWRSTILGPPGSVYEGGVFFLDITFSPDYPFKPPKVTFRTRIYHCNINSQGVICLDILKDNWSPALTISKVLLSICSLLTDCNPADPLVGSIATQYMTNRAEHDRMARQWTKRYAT
UniProt Q8VI33, whole entry: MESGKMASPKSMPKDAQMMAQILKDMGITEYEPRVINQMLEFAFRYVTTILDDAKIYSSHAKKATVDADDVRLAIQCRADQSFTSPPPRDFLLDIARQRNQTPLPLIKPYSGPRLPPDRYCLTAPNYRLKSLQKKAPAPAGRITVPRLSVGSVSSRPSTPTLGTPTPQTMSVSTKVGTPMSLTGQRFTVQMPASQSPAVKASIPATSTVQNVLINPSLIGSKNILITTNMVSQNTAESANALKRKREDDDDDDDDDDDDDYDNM
UniProt Q91WC3: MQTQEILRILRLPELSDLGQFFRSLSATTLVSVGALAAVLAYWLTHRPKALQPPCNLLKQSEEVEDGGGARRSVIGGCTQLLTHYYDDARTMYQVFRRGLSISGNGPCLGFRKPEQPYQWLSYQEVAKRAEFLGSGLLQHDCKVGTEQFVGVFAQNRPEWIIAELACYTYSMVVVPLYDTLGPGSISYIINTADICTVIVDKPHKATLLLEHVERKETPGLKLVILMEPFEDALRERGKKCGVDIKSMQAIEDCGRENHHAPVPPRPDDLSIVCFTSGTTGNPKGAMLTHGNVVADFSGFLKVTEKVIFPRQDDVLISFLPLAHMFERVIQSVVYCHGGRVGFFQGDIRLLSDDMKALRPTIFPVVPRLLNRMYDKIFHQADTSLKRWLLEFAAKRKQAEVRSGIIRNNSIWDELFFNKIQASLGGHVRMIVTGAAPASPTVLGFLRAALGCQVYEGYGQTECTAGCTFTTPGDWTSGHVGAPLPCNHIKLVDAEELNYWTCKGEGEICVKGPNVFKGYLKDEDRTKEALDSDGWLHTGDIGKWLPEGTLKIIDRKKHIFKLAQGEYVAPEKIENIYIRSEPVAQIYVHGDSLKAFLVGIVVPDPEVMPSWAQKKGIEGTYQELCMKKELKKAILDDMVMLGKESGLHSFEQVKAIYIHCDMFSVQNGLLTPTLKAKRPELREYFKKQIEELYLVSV
UniProt Q91W43: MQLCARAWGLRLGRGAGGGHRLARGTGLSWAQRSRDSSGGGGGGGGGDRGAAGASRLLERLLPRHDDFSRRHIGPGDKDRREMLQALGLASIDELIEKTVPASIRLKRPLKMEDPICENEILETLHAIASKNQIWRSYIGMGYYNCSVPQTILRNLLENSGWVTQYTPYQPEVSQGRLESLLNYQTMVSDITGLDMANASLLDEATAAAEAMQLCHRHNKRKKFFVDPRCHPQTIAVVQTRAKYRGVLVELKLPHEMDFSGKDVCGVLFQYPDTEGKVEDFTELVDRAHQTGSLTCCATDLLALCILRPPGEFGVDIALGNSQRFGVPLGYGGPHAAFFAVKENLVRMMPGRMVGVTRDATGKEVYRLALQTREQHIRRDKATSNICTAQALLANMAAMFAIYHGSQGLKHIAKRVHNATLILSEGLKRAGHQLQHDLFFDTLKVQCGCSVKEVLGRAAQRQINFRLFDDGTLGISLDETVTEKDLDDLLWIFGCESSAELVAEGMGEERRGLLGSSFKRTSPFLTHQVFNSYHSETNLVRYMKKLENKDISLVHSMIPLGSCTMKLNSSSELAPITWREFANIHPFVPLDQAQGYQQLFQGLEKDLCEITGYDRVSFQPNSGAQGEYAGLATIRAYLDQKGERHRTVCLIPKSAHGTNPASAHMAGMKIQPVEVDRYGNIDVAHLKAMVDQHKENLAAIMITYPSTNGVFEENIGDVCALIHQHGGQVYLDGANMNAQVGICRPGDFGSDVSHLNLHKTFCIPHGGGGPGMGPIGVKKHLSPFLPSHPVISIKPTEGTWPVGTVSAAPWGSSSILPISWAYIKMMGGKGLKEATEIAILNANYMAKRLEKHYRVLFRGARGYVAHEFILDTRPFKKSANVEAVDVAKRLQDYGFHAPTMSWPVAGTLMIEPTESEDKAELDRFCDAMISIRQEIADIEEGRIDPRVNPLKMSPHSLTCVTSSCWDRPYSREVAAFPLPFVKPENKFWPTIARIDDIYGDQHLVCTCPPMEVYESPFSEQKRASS
UniProt Q91YD3: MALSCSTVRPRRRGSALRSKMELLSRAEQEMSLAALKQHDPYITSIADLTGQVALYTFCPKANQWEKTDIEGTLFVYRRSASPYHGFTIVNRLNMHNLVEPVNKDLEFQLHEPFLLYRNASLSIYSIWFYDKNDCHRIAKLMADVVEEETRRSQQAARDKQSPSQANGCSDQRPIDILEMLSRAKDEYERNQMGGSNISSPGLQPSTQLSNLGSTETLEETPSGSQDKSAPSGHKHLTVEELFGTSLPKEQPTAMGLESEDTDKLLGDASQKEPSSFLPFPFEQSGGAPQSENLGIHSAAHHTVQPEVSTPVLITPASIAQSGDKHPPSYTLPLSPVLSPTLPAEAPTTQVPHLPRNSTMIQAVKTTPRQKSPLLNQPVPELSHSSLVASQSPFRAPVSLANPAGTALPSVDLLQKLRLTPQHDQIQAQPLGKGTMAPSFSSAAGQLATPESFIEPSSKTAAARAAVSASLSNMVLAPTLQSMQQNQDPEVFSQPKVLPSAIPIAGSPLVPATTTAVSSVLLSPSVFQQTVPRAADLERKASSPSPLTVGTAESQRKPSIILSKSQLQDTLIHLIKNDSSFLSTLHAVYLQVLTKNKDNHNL
UniProt Q91WG8: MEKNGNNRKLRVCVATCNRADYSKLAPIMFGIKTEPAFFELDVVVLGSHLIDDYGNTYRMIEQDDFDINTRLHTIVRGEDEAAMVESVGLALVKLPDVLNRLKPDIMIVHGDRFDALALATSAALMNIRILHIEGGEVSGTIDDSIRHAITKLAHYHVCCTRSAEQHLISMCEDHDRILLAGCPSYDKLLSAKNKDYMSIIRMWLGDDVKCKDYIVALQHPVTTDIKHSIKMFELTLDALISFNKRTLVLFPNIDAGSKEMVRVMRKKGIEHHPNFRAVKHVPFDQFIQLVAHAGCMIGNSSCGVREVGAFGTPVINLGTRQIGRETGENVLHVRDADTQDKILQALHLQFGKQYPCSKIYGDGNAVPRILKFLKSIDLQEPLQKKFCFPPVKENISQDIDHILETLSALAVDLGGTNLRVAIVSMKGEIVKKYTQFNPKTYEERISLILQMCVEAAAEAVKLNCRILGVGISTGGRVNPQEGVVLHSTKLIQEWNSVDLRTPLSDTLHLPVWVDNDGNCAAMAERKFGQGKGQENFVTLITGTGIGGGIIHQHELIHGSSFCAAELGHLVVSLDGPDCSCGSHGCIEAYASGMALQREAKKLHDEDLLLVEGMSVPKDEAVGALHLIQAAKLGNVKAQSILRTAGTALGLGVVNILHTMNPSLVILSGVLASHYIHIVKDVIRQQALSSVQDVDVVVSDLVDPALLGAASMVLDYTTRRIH
UniProt Q91WV0: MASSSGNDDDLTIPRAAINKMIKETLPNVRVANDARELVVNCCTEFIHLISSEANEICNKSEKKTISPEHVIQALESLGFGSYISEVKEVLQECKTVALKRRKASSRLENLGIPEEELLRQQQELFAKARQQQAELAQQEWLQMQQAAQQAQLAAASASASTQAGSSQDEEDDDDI
UniProt Q91X77, whole entry: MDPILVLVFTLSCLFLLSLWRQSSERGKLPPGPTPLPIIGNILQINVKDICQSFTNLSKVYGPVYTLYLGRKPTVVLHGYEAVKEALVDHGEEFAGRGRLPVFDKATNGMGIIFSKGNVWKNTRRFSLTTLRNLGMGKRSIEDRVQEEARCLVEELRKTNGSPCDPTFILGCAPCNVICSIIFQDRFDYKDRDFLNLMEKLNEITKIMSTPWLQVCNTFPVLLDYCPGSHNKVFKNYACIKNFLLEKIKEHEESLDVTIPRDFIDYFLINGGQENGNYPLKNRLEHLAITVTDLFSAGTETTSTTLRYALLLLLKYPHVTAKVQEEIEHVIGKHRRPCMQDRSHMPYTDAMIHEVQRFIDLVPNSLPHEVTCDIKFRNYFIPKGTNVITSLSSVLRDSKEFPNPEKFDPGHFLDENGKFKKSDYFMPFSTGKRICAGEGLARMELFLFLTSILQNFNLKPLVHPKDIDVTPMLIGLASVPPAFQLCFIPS

The other results are listed elsewhere or left out. Most entries show no effect beyond the scatter of the controls.

Compound in this experiment: CN[C@@H]1C[C@H]2O[C@@](C)([C@@H]1OC)n1c3ccccc3c3c4c(c5c6ccccc6n2c5c31)C(=O)NC4 [staurosporine]
The experiment in a line: log2 fold change of tryptic peptide abundance, ligand vs vehicle (limited proteolysis) (log2 ratio); higher = more trypsin-susceptible (destabilized). The following applies: ligand concentration: 20 uM; sample: mouse liver crude lysate; replicate design: treated separately.
For the target “UniProt Q91YU6 (peptide sequence: GAPSLPGFLGPR, peptide start residue: 157)”, the log2 fold change is 0.385.
For “UniProt Q91Y47 (peptide sequence: ERPGVYTNVAK, peptide start residue: 602)” the value was 0.882.
For “UniProt Q91W59 (peptide sequence: YIPNGRPWPR, peptide start residue: 237)” the value was 0.342; for “UniProt Q91X83 (peptide sequence: SEFPWEVPKK, peptide start residue: 384)”, 0.11.
For the target “UniProt Q91ZT5 (peptide sequence: SLEIISTAASHSNSAIR, peptide start residue: 379)”, the log2 fold change was -0.426.
For the target “UniProt Q91VC9 (peptide sequence: GKTGQELK, peptide start residue: 57)”, the log2 fold change was determined as 0.1.
With “UniProt Q91YN1 (peptide sequence: DRDLLVVAHDLIR, peptide start residue: 84)”, the log2 fold change is 0.23.
For the target “UniProt Q91WF0 (peptide sequence: KALTDFIQEEFQR, peptide start residue: 234)”, the log2 fold change is -0.259.
For “UniProt Q91XE4 (peptide sequence: SSLPGSREPLLR, peptide start residue: 2)” the value was 0.182.
As for “UniProt Q91YX0 (peptide sequence: ASVVPEDQPLRLEAVEIHHGIR, peptide start residue: 121)”, the log2 fold change turned out to be 0.472.
For “UniProt Q91XD7 (peptide sequence: DNFGGGNTAWEEEKLSK, peptide start residue: 66)” the value was -0.157; for “UniProt Q91XE9 (peptide sequence: KKEYIDGLENR, peptide start residue: 260)”, -0.145; for “UniProt Q91X52 (peptide sequence: MMALELGPHK, peptide start residue: 162)”, 0.177.
On to “UniProt Q91WK7 (peptide sequence: DELRCKIPAGR, peptide start residue: 79)”, for which the log2 fold change is -0.317.
“UniProt Q91W82 (peptide sequence: ESVQQEPDREQVQPK, peptide start residue: 25)”: the log2 fold change is -0.0482.
For “UniProt Q8VI33 (peptide sequence: VGTPMSLTGQR, peptide start residue: 176)” the value was 0.144; for “UniProt Q8VHK1 (peptide sequence: AFSYLAGSPAAPPDPPRPK, peptide start residue: 776)”, -0.22; for “UniProt Q8VI94 (peptide sequence: LSFQEPGGER, peptide start residue: 391)”, -0.122.
Under “UniProt Q8VIK5 (peptide sequence: SYSCSYSHR, peptide start residue: 885)” stands 0.399; under “UniProt Q91XT4 (peptide sequence: FATIEAIQR, peptide start residue: 590)”, -0.304; under “UniProt Q91WE4 (peptide sequence: KAVQQSGDKNMSK, peptide start residue: 35)”, 0.25.
Under “UniProt Q91WC3 (peptide sequence: LLNRMYDK, peptide start residue: 369)” stands 0.1; under “UniProt Q91W43 (peptide sequence: GYVAHEFILDTRPFKK, peptide start residue: 862)”, 0.158; under “UniProt Q91UZ5 (peptide sequence: VFLSNMER, peptide start residue: 187)”, 0.163.
Consider “UniProt Q91WI7 (peptide sequence: NVSTHLIGNIR, peptide start residue: 252)”, for which the log2 fold change amounted to 0.48.
With “UniProt Q91YD3 (peptide sequence: SQLQDTLIHLIK, peptide start residue: 565)”, the log2 fold change was -0.481.
Turning to “UniProt Q91WG8 (peptide sequence: LAHYHVCCTR, peptide start residue: 153)”, the log2 fold change stood at 0.124.
Turning to “UniProt Q91W92 (peptide sequence: DRDRDPDHSQDR, peptide start residue: 176)”, the log2 fold change was -0.26.
Regarding “UniProt Q91X72 (peptide sequence: GPDSVFLIKEDK, peptide start residue: 103)”, the log2 fold change is -0.248.
Under “UniProt Q91ZM2 (peptide sequence: VGGPLAVLGPSR, peptide start residue: 114)” stands 0.307; under “UniProt Q91VJ2 (peptide sequence: KAAQPTPVKPPR, peptide start residue: 197)”, -0.531.
Under “UniProt Q91WS2 (peptide sequence: LKQQQLQK, peptide start residue: 94)” stands -0.332.
On to “UniProt Q91WV0 (peptide sequence: EVLQECK, peptide start residue: 89)”, for which the log2 fold change is -0.141.
“UniProt Q91V80 (peptide sequence: LGGVEATQALIHHLQELQK, peptide start residue: 104)”: the log2 fold change worked out at 0.105.
With “UniProt Q91X77 (peptide sequence: RFSLTTLR, peptide start residue: 125)”, the log2 fold change worked out at 0.205.
Consider “UniProt Q91VV4 (peptide sequence: ILEYEEQKK, peptide start residue: 453)”, for which the log2 fold change was -0.372.
